Results taken from US12438175B2, “Aqueous organic-based electrolyte for redox flow battery” (KEMIWATT, priority 2019, dated 2025).
Values joined by “and” are separate entries in the source; they are usually repeats but may differ in a detail not shown here. Identical values can stand only once. Counter-ions that a name gives are not always drawn. Like-named read-outs stand apart in the source and are kept apart here.

Tests used:
[1] = Cycling tests of redox flow battery cells in constant power cycling mode; details: for Average CE over 5 days / Capacity retention after 5 days / Capacity retention per cycle over 5 days / Capacity retention per day over 5 days / Energy Density after 5 days at 40 mW/cm^2: 5 days of constant cycling; for Energy Density after 5 days at 40 mW/cm^2: negolyte 120 mL (ARS, AQ-2,7-DS), 40 mL (Complexone), 370 mL (M3CH)
[2] = CN107171012, compound in the negolyte, galvanostatic mode, cited from earlier work
[3] = Cycling tests of redox flow battery cells in galvanostatic mode; details: for available capacity (capacity utilization): first 100 cycles
[4] = 0.3 M AQ-2,7-DS, pH 13.0, Battery no 3, 60 mL, flowrate 0.5 mL/min/cm^2
[5] = 0.3 M AQ-2,7-DS, pH 13.0, Battery no 3, 60 mL, flowrate 5 mL/min/cm^2
[6] = 0.3 M AQ-2,7-DS, pH 13.0, Battery no 4, 120 mL, flowrate 0.5 mL/min/cm^2
[7] = 0.3 M AQ-2,7-DS, pH 13.0, Battery no 4, 120 mL, flowrate 5 mL/min/cm^2
[8] = flowrate 0.5 mL/min/cm^2, negolyte 120/120/40/370 mL
[9] = 0.2 M ARS, pH 14.0, Battery no 1, 60 mL, flowrate 0.5 mL/min/cm^2
[10] = 0.2 M ARS, pH 14.0, Battery no 1, 60 mL, flowrate 5 mL/min/cm^2
[11] = 0.2 M ARS, pH 14.0, Battery no 2, 120 mL, flowrate 0.5 mL/min/cm^2
[12] = 0.2 M ARS, pH 14.0, Battery no 2, 120 mL, flowrate 5 mL/min/cm^2
[13] = 0.3 M Complexone, pH 13.7, Battery no 5, 40 mL, flowrate 0.5 mL/min/cm^2
[14] = 0.3 M Complexone, pH 13.7, Battery no 5, 40 mL, flowrate 5 mL/min/cm^2
[15] = 5 cm^2, 0.2 M compound, 1 M KOH, pH 13.5, 0.2 A
[16] = 5 cm^2, 0.2 M D4SH, 1 M KOH, pH 13.5, 0.1 A
[17] = Test 1: 0.5 M M3CH, pH 13.0, 1 A

O=C1c2ccc(S(=O)(=O)O)cc2C(=O)c2cc(S(=O)(=O)O)ccc21 [AQ-2,7-DS, Anthraquinone-2,7-disulfonic acid disodium salt]
Average CE over 30 c [1, 4]: 99.46%
Capacity retention after 30 c [1, 4]: 98.82%
Capacity retention per cycle over 30 c [1, 4]: 99.96%/cycle
Capacity retention per day per day over 30 c [1, 4]: 99.18%/day
Energy Density after 30 c at 40 mW/cm^2 [1, 4]: 2.9 Wh/L
Storage duration of the 1st cycle at 40 mW/cm^2 [1, 4]: 0.40 h
Average CE over 30 c [1, 5]: 99.31%
Capacity retention after 30 c [1, 5]: 98.24%
Capacity retention per cycle over 30 c [1, 5]: 99.94%/cycle
Capacity retention per day per day over 30 c [1, 5]: 98.95%/day
Energy Density after 30 c at 40 mW/cm^2 [1, 5]: 4.0 Wh/L
Storage duration of the 1st cycle at 40 mW/cm^2 [1, 5]: 0.57 h
Average CE over 30 c [1, 6]: 0.00%
Capacity retention after 30 c [1, 6]: 0.00%
Capacity retention per cycle over 30 c [1, 6]: 0.00%/cycle
Capacity retention per day per day over 30 c [1, 6]: 0.00%/day
Energy Density after 30 c at 40 mW/cm^2 [1, 6]: 0.0 Wh/L
Storage duration of the 1st cycle at 40 mW/cm^2 [1, 6]: 0.00 h
Average CE over 30 c [1, 7]: 99.31%
Capacity retention after 30 c [1, 7]: 96.19%
Capacity retention per cycle over 30 c [1, 7]: 99.87%/cycle
Capacity retention per day per day over 30 c [1, 7]: 98.87%/day
Energy Density after 30 c at 40 mW/cm^2 [1, 7]: 4.1 Wh/L
Storage duration of the 1st cycle at 40 mW/cm^2 [1, 7]: 1.19 h
Average CE over 5 days [1, 8]: 0%
Capacity retention after 5 days [1, 8]: 0%
Capacity retention per cycle over 5 days [1, 8]: 0%/cycle
Capacity retention per day over 5 days [1, 8]: 0%/day
Energy Density after 5 days at 40 mW/cm^2 ([1]; flowrate 0.5 mL/min/cm^2): 0.0 Wh/L
Storage duration of the 1st cycle at 40 mW/cm^2 [1, 8]: 0 h

O=C1c2ccccc2C(=O)c2c1cc(S(=O)(=O)O)c(O)c2O [ARS, 1,2-Dihydroxyanthraquinone-3-sulfonic acid sodium salt]
Average CE over 30 c [1, 9]: 98.79%
Capacity retention after 30 c [1, 9]: 92.06%
Capacity retention per cycle over 30 c [1, 9]: 99.72%/cycle
Capacity retention per day over 30 c [1, 9]: 93.87%/day
Energy Density after 30 c at 40 mW/cm^2 [1, 9]: 2.5 Wh/L
Storage duration of the 1st cycle at 40 mW/cm^2 [1, 9]: 0.41 h
Average CE over 30 c [1, 10]: 98.79%
Capacity retention after 30 c [1, 10]: 95.27%
Capacity retention per cycle over 30 c [1, 10]: 99.84%/cycle
Capacity retention per day over 30 c [1, 10]: 96.57%/day
Energy Density after 30 c at 40 mW/cm^2 [1, 10]: 3.2 Wh/L
Storage duration of the 1st cycle at 40 mW/cm^2 [1, 10]: 0.50 h
Average CE over 30 c [1, 11]: 98.56%
Capacity retention after 30 c [1, 11]: 86.22%
Capacity retention per cycle over 30 c [1, 11]: 99.51%/cycle
Capacity retention per day over 30 c [1, 11]: 94.34%/day
Energy Density after 30 c at 40 mW/cm^2 [1, 11]: 2.2 Wh/L
Storage duration of the 1st cycle at 40 mW/cm^2 [1, 11]: 0.77 h
Average CE over 30 c [1, 12]: 98.48%
Capacity retention after 30 c [1, 12]: 89.82%
Capacity retention per cycle over 30 c [1, 12]: 99.64%/cycle
Capacity retention per day over 30 c [1, 12]: 96.68%/day
Energy Density after 30 c at 40 mW/cm^2 [1, 12]: 3.5 Wh/L
Storage duration of the 1st cycle at 40 mW/cm^2 [1, 12]: 1.16 h
Average CE over 5 days [1, 8]: 98.64%
Capacity retention after 5 days [1, 8]: 72.9686%
Capacity retention per cycle over 5 days [1, 8]: 99.5010%/cycle
Capacity retention per day over 5 days [1, 8]: 93.8917%/day
Energy Density after 5 days at 40 mW/cm^2 ([1]; flowrate 0.5 mL/min/cm^2): 1.9 Wh/L
Storage duration of the 1st cycle at 40 mW/cm^2 [1, 8]: 0.77 h
coulombic efficiency [2]: 98.3%
energy density [2]: 1.2 Wh/L

O=C(O)CN(CC(=O)O)Cc1cc2c(c(O)c1O)C(=O)c1ccccc1C2=O [Complexone, 3,4-Dihydroxyanthraquinon-2-yl-methylimino-diacetic acid]
Average CE over 30 c [1, 13]: 98.88%
Capacity retention after 30 c [1, 13]: 89.89%
Capacity retention per cycle over 30 c [1, 13]: 99.65%/cycle
Capacity retention per day over 30 c [1, 13]: 93.28%/day
Energy Density after 30 c at 40 mW/cm^2 [1, 13]: 4.5 Wh/L
Storage duration of the 1st cycle at 40 mW/cm^2 [1, 13]: 0.53 h
Average CE over 30 c [1, 14]: 98.7%
Capacity retention after 30 c [1, 14]: 90.79%
Capacity retention per cycle over 30 c [1, 14]: 99.68%/cycle
Capacity retention per day over 30 c [1, 14]: 93.72%/day
Energy Density after 30 c at 40 mW/cm^2 [1, 14]: 4.8 Wh/L
Storage duration of the 1st cycle at 40 mW/cm^2 [1, 14]: 0.54 h
Average CE over 5 days [1, 8]: 98.98%
Capacity retention after 5 days [1, 8]: 71.4600%
Capacity retention per cycle over 5 days [1, 8]: 99.6977%/cycle
Capacity retention per day over 5 days [1, 8]: 93.5002%/day
Energy Density after 5 days at 40 mW/cm^2 ([1]; flowrate 0.5 mL/min/cm^2): 3.5 Wh/L
Storage duration of the 1st cycle at 40 mW/cm^2 [1, 8]: 0.53 h
energy density [2]: 5.2 Wh/L
coulombic efficiency ([2]; listed as alizarin complexone): 97.1% and 97.8%

O=C(O)CCCCOc1ccc(OCCCCC(=O)O)c2c1C(=O)c1ccccc1C2=O [Compound D4CH]
averaged coulombic efficiency [3, 15]: 99.5%
capacity retention [3, 15]: 99.995 % per cycle
cycles before losing 20% of initial capacity [3, 15]: 4,000 cycles
energy efficiency [3, 15]: 70%
available capacity (capacity utilization) [3, 15]: 91%

O=C1c2ccccc2C(=O)c2c(OCCCCS(=O)(=O)O)ccc(OCCCCS(=O)(=O)O)c21 [Compound D4SH]
charged capacity, second cycle ([3]; 0.2 M D4SH, 0.1 A): 4.4 mAh
available capacity reached in first charge [3, 16]: 34%
discharged capacity, first cycle [3, 16]: 3.6 mAh
discharged capacity as % of the charged capacity ([3]; first cycle, 0.2 M D4SH, 0.1 A): 10%

O=C(O)CCCOc1ccc(O)c2c1C(=O)c1ccccc1C2=O [Compound M3CH]
Average CE over 5 days [1, 8]: 99.18%
Capacity retention after 5 days [1, 8]: 99.9898%
Capacity retention per cycle over 5 days [1, 8]: 99.9992%/cycle
Capacity retention per day over 5 days [1, 8]: 99.9980%/day
Energy Density after 5 days at 40 mW/cm^2 ([1]; flowrate 0.5 mL/min/cm^2): 4.6 Wh/L
averaged coulombic efficiency ([1]; Example 6): 99.1%
capacity retention ([1]; Example 6): 100 % per cycle
energy efficiency ([1]; Example 6): 78%
available capacity ([1]; Example 6, 30 cycles over 14 days): 74%
power density in charge ([1]; Example 6, 50% SOC): 90 mW·cm^2
power density in discharge ([1]; Example 6, 50% SOC): 70 mW·cm^2
active surface resistance of the cell ([1]; Example 6, polarization curve at 50% SOC): 20 Ω·cm^2
storage capacity ([1]; Example 6: 370 mL negolyte 0.3 M M3CH, pH 13.5, 1 W, 0.5 mL/min/cm^2): 4 h
Storage duration of the 1st cycle at 40 mW/cm^2 [1, 8]: 4.05 h
averaged coulombic efficiency ([3]; Test 1): 99.8%
cycles before losing 20% of initial capacity ([3]; Test 1): 36,363 cycles
energy efficiency ([3]; Test 1): 78%
capacity retention [3, 17]: 100 % per cycle
energy density [3, 17]: ~10 Wh/L
available capacity ([3]; Test 1: 25 cm^2, 0.5 M M3CH, pH 13.0, 1 A, 85 cycles): 96%
average CE with 1 day of rest after each full charge ([3]; Test 2): 99.76%
capacity retention ([3]; Test 2): > 99.9999 % per cycle
cycles before losing 20% of initial capacity ([3]; Test 2): 200,000 cycles
energy efficiency ([3]; Test 2): 79%
hours of storage ([3]; Test 2): 1.13 h
self-discharge ([3]; Test 2, estimated): ~0.19 % per storage day
available capacity ([3]; Test 2: 25 cm^2, 0.5 M M3CH, pH 13.0, 1 A, 24 h rest after charge, 7 cycles): 92%
average CE during constant cycling ([3]; Test 2 comparison, no rest): 99.95%

O=C1c2ccccc2C(=O)c2c(OCCCCS(=O)(=O)O)ccc(O)c21 [Compound M4SH]
averaged coulombic efficiency [3, 15]: 99.9%
capacity retention [3, 15]: 99.999 % per cycle
cycles before losing 20% of initial capacity [3, 15]: 20,000 cycles
energy efficiency [3, 15]: 76%
available capacity (capacity utilization) [3, 15]: 98%
